Experimental data reported in patent US20250145690A1.
These are yes or no findings as the source states them, for the method shown. Some entries that bind do so weakly or less than the wild type.

Amino acid sequences for entries named in this document (tags omitted). Residues count along the entry.
UniProt K9N5Q8, residues 18-1291: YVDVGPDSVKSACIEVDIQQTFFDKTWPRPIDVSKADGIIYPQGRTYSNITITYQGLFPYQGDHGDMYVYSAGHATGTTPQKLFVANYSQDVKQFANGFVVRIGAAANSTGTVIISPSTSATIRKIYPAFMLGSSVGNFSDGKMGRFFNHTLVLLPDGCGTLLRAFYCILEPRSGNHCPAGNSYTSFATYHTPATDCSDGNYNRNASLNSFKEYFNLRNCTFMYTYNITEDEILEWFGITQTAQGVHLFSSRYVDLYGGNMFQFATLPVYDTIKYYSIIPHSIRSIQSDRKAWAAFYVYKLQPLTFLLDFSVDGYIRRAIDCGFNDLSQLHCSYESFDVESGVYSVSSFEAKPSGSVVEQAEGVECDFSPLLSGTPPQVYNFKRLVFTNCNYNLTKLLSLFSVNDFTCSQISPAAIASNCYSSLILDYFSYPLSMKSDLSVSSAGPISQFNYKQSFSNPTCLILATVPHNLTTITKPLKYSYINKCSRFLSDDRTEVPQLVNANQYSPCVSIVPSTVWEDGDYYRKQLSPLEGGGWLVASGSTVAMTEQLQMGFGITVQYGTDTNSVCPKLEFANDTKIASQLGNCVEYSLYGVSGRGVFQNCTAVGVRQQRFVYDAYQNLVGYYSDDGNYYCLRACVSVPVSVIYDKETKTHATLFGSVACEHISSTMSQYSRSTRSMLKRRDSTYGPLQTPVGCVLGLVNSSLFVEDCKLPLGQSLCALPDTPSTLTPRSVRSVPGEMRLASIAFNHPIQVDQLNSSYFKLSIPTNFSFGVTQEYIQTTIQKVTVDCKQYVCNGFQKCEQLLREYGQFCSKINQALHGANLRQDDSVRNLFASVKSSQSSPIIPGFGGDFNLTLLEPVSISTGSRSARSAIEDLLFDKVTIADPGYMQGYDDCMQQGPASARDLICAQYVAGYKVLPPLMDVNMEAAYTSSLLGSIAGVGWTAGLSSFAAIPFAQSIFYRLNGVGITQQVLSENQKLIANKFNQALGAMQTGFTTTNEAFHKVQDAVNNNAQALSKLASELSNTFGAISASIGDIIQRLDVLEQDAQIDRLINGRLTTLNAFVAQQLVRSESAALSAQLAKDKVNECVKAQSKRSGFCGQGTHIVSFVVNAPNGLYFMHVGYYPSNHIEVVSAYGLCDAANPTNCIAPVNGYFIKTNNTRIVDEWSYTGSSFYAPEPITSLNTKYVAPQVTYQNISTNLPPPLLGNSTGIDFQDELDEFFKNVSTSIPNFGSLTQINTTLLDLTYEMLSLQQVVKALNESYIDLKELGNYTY
UniProt P36334, residues 14-1297: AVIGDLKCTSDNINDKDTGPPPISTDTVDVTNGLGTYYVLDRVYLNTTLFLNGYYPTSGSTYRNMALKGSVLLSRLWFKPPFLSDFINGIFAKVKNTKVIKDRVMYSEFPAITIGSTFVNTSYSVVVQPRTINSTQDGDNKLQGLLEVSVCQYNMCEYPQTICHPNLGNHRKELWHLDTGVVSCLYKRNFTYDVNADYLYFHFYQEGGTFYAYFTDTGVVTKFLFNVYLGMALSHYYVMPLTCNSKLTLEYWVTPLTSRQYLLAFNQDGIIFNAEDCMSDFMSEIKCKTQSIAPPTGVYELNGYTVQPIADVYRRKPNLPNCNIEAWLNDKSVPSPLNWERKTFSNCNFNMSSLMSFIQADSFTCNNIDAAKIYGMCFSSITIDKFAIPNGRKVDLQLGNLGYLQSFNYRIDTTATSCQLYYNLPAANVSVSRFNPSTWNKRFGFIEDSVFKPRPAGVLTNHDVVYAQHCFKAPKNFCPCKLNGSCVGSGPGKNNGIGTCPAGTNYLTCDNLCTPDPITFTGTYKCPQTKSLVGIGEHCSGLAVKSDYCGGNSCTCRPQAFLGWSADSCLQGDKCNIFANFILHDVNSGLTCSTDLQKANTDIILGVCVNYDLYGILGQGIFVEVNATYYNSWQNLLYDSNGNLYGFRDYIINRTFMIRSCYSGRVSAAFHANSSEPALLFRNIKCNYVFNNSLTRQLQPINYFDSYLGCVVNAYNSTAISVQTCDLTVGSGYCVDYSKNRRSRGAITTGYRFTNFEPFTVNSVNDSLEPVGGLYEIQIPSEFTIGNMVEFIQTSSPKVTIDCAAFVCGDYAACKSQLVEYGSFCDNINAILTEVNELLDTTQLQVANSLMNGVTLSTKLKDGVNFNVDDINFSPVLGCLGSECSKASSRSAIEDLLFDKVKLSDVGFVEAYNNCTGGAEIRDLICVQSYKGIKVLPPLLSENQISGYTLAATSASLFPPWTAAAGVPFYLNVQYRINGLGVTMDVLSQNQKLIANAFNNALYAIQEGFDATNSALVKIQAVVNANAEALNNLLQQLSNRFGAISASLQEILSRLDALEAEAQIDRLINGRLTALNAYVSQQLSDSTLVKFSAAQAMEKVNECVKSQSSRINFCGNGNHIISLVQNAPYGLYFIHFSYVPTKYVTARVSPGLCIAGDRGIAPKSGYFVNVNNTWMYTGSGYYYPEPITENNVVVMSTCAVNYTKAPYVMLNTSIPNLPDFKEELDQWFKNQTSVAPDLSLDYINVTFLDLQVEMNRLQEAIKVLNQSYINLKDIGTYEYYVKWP

Tests used:
[1] = target: SARS-CoV-2 spike S2 subunit, recombinant (SARS-CoV-2) (UniProt P0DTC2); test: multiplex bead flow cytometry
[2] = target: SARS-CoV-2 spike S2 subunit, recombinant (SARS-CoV-2) (UniProt P0DTC2); test: bead flow cytometry, AUC minus CD4
[3] = target: MERS-CoV spike protein (MERS-CoV) (UniProt K9N5Q8); test: multiplex bead flow cytometry
[4] = target: SARS-CoV-1 spike protein, recombinant (SARS-CoV-1) (UniProt P59594); test: multiplex bead flow cytometry
[5] = target: MERS-CoV spike protein (MERS-CoV) (UniProt K9N5Q8); test: bead flow cytometry, AUC minus CD4
[6] = target: HCoV-HKU1 spike protein (Sino Biological 40606-V08B) (HCoV-HKU1) (UniProt Q0ZME7); test: bead flow cytometry, AUC minus CD4
[7] = target: HCoV-OC43 spike protein (HCoV-OC43) (UniProt P36334); test: bead flow cytometry, AUC minus CD4

Binder	binding [1]	binding [2]	binding [3]	binding [4]	other results
COV72-37 (antibody, V domains shown) VH: QVQLVQSGAEVKKPAASVKVSCKASGDTFSSHYMHWVRQAPGQGPEWMGIINPSGSGTAYGQKFQGRLTMTRDTSTSTVYMELSSLTSDDTAVYYCGGGSGGLFAYWGQGTLVTVSS VL: EIVLTQSPGTLSLSPGERATLSCRASQIVRSNYLAWYQQKPGQAPRLLIYGASSRATGTPDRFSGGGSGTDFTLTINRLEPEDFAVYYCLQYDSSPPTYIFGQGTKLEIK	binds	binds	–	–	–
COV44-79 (antibody, V domains shown) VH: QVQLVESGGGVVQPGRSLRLSCAASGLTFSGYAMHWVRQAPGKGLEWVAVISRDARNKYYADSVKGRFTISRDNSKKTVYLEMNSLRVEDTAVYYCAILIIPGITEPGSPDALDIWGQGTMVSVSS VL: DIQMTQSPSSMSASVGDRVTITCRASQDISKWLAWYQQRPGKAPKLLIYAASSLQSGVPSRFSGSGSGTDFTLTISSLQPEDFATYYCQQASSFPWSITFGQGTRLEIR	–	–	binds	binds	–
COV44-26 (antibody, V domains shown) VH: QVQLVQSGAEVKKPGASVKVSCKASGYTFSNFYMNWVRQAPGQGLEWVGLISPSAGYTAYAQMFQGRVTMTRDTSTSTVYMELSSLRSEDTAVYYCARVAVAGPNDYWGQGTLVTVSS VL: EIVLTQSPGTLSLSPGERATLSCRASQSISSSYLAWYQQKPGQAPRLVIFAASTRATGIPDRFSGSGSGTDFTLTITRLEPEDFALYYCQHYRSSPPLWTFGQGTKVEIR	–	–	–	binds	–
COV89-22 (antibody, V domains shown) VH: QEQLVQSGAEVKKPGASVKVSCKSSGFTFSYFYLHWVRQAPGQGLEWMGIINPRGDGTRYAQKFQGRVTMTRDASTGTLYMELRSLRSEDTAVYYCARGADHGAFDIWGQGTMVTVSS VL: EIVLTQSPGTLSLSPGERATLSCRASQSVRRNYFAWYQQKRGQAPRLLIYDASTRATGIPDRFSGSGSGTDFTLTISRLEPEDFAVYYCQQYDSSPPMYIFGQGTKLEIK	binds	binds	–	binds	binding [5]: binds
COV44-62 (antibody, V domains shown) VH: QMQLMQSGAEVKKPGASVTVSCKASGDTFSDYRIHWVRQAPGQGLEWMGRMNPKSGDTNFAQKFQGRVTMTRDMSINTAYMTLSGLTFDDTALYYCASLLIVGGFDPLDDFEVWGQGTMVTISS VL: QSALTQPPSASGSPGQSVTISCSGTSSDVGGYNFVSWYQHHPGKAPKILIYEVTKRPSGVPDRFSGSKSGNTASLTVSGLQAEDEADYYCSSYGGTNNLLFGGGTKLTVL	–	–	binds	binds	–
COV57-01 (antibody, V domains shown) VH: QVQLVESGGGVVQPGRSLRLSCTVSGFTFNNYGMHWVRQAPGKGLEWLAVISYEGSKKFYADSLEGRFSISRDSSKNTLYLQMNSLTIEDTAVYFCAKRNSIFWFGEGRKDAFDVWGQGTRVIVSS VL: DIQLTQSPSSLSASVGDRVTITCRASQTVDNYLNWYQQLPGKAPKLLIHTASTLQSGVPSRFSATSSGTDFTLTISGLQPDDSATYFCQQSYSVPLTFGGGTKVEIKV	–	–	–	–	binding [6]: binds; binding [7]: binds
